## Assay results

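A cell-based FRET test of anthrax lethal toxin entry, tracked through the 460 nm emission signal; the cell line is not named here.
Each compound was tested as a concentration series from about 0.0005 to 40 µM.
The number is the fitted AC50 of the 460 nm signal alone; lower values mean a more potent effect. A falling signal goes with compounds filed as inhibitors or cytotoxic, a rising one with activators or fluorescent compounds (inferred from the filed classes).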

Values are in µM.
Common to all entries: measured here: 460 nm channel.
This is a side read-out of the assay, for part of the compounds, not drawn at random.
Potencies fitted to partial, single-point or poorly fitting curves are rough.
The first word of each remark tells which way the curve ran; it can be opposite to the aim of the assay.

structure	AC50 (µM)	curve
CCOc1c(C(N)=O)c(-c2ccccc2)c2c(=O)[nH]c3ccccc3n12	10	rising, partial curve
CC(=O)OCC(=O)[C@@]1(OC(C)=O)[C@H](C)C[C@H]2[C@@H]3C[C@H](F)C4=CC(=O)C=C[C@@]4(C)[C@]3(F)[C@H](O)C[C@@]21C	0.1585	falling, partial curve, poor fit
O=C1c2cccnc2C(Nc2ccc(S(=O)(=O)N3CCCCC3)cc2)N1Cc1ccccc1 (stereo not shown)	0.1	rising, full curve
CN1CC(=O)NC1=NC(=O)c1ccc(Cl)c(S(=O)(=O)N2CCCCCC2)c1	0.3981	rising, full curve
N#Cc1nc(Cc2cccc3ccccc23)oc1NCc1ccco1	3.162	falling, partial curve, poor fit
NC(Cc1ccc2nonc2c1)C(=O)O (stereo not shown)	3.981	rising, partial curve
O=C(OCC#CCSc1nc2ccccc2s1)c1ccco1	10	falling, single point
CCN(CC)CCNc1ccnc2cc(Cl)ccc12	12.59	falling, partial curve
O=C(c1ccco1)N1CCCC(c2nc(-c3ccc(S(=O)(=O)NCc4ccccc4)cc3)no2)C1 (stereo not shown)	12.59	falling, partial curve
CCOc1cccc(-n2nnnc2-c2ccc(OC)cc2)c1	3.981	falling, full curve, poor fit
O=c1[nH]c(=O)n(Cc2ccco2)c(O)c1C=NC1CC1	10	rising, partial curve, poor fit
COc1ccc(C)cc1C(=O)CCC(=O)Nc1ccccc1N1CCOCC1	31.62	falling, partial curve
Nc1nc(CN2CCN(c3ccccn3)CC2)nc(Nc2ccc(F)cc2)n1	0.631	falling, single point
N#Cc1nc(Cc2cccc3ccccc23)oc1NCc1ccc2c(c1)OCO2	0.02512	rising, full curve
CCCN(CCC)CCNC(=O)c1cc2c(C)nc3ccccc3c2o1	31.62	falling, single point
COc1ccc(-c2nc(C#N)c(NCCc3ccccc3)o2)cc1OC	12.59	falling, single point
CCOC(=O)N1CCN(c2c(Nc3ccc4c(c3)OCCO4)c(=O)c2=O)CC1	12.59	rising, single point
CCNc1nc2nonc2nc1NCC	31.62	falling, partial curve, poor fit
Nc1ccc(-c2nc3c(Cl)c(N)ccc3[nH]2)cc1	10	rising, single point
COc1ccc(CCC(=O)N2CC(C)OC(C)C2)cc1 (stereo not shown)	3.162	rising, single point
c1ccc2c(Nc3ccncc3)nc(-c3ccc4c(c3)OCO4)nc2c1	1	falling, full curve
O=C(NCc1ccco1)C(c1ccc(F)cc1)N(Cc1cccnc1)C(=O)Cn1nnc2ccccc21 (stereo not shown)	5.012	rising, single point
CCOc1ccc(C2C=C(c3ccccc3)Nc3nnnn32)cc1 (stereo not shown)	31.62	rising, single point
CCc1c(C)c2cc(Cl)c(O)c(CN(CC)CC)c2oc1=O	15.85	rising, single point
O=S(=O)(CCSc1nc2ccccc2o1)c1nc2ccccc2s1	5.012	falling, partial curve
CCOC(=O)c1cc2c(=O)n3ccccc3nc2n(CC2CCCO2)c1=NC(C)=O (stereo not shown)	10	rising, partial curve
CCc1cccc2nc3c(c([Si](C)(C)C)c12)Cn1c-3cccc1=O	10	rising, partial curve
COc1cccc(Cn2c(=O)c(-c3cc(F)cc(F)c3)nc3cnc(N4CCNCC4)nc32)c1	1.995	rising, full curve
Nn1c(CSc2ccccn2)nc2ccccc2c1=O	0.1585	falling, full curve, poor fit
Cn1cc(-c2nc3cnc(Oc4cccc(Cl)c4)nc3n(C3CC3)c2=O)c2ccccc21	0.631	rising, full curve
CCCOc1cccc(C(=O)Nc2cccc(NC(=O)c3ccco3)c2)c1	10	falling, partial curve
CCCC(=O)N(c1ccc2oc(=O)sc2c1)S(=O)(=O)c1cccs1	3.981	falling, full curve
CCc1ccc(-c2cn(-c3nc(C)cc(C)n3)c(=N)o2)cc1	15.85	falling, partial curve
NCCCCCCCCCCNS(=O)(=O)c1cccc2c(Cl)cccc12	25.12	falling, partial curve
O=C(CSc1nnc(-c2ccccc2)o1)c1ccc2c(c1)OCCO2	5.012	rising, single point
COC(=O)C1=CN(C)C=C(C(=O)OC)C1c1ccccc1Cl	1	rising, full curve
COC(=O)[C@@]1(Cc2ccc(OC)cc2)[C@H]2c3cc(C(=O)N4CCCC4)n(Cc4ccc(Cl)c(C(F)(F)F)c4)c3C[C@H]2CN1C(=O)c1ccccc1	31.62	falling, single point
N#Cc1c(NC(=O)CSc2ncc(-c3ccccc3)n2CC2CCCO2)sc2c1CCCC2 (stereo not shown)	0.3981	falling, partial curve, poor fit
O=C(Nc1ccc(Cl)cc1)c1ccsn1	1.259	falling, full curve, poor fit

From PubChem BioAssay record AID912 (NCATS, 2007).